From the supplement of paper PMC10849652
The list shows a part of the results.

Sequences of proteins named here, by UniProt entry; tags and fusion partners are left off. A change or cut given only in a name is not applied to a line headed by its entry.
UniProt Q969H8: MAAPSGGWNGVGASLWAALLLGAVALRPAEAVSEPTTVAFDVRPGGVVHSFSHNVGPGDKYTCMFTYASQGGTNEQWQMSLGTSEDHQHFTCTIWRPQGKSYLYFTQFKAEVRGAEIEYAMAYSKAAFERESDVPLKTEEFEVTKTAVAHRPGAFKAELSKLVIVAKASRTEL
UniProt Q13496: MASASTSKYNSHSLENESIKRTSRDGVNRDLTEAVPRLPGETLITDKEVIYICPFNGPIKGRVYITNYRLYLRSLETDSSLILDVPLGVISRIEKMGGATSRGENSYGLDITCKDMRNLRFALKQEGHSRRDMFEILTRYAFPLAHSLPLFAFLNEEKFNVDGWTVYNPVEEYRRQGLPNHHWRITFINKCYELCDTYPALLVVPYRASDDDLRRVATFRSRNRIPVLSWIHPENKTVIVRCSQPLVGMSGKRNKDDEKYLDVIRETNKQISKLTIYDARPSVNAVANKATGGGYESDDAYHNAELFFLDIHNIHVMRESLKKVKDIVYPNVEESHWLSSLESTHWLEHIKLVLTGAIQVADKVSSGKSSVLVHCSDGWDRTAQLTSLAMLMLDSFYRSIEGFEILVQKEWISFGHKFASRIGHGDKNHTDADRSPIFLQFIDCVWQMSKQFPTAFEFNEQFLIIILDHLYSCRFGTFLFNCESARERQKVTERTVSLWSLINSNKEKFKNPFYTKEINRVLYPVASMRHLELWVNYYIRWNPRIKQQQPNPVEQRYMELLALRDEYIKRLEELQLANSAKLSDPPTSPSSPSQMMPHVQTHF
UniProt Q9UDX5: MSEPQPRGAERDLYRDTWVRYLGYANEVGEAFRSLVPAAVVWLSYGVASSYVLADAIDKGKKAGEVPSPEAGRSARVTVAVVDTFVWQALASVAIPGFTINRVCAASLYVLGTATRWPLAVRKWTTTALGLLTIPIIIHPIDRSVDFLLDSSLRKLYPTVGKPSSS
UniProt Q96DH6: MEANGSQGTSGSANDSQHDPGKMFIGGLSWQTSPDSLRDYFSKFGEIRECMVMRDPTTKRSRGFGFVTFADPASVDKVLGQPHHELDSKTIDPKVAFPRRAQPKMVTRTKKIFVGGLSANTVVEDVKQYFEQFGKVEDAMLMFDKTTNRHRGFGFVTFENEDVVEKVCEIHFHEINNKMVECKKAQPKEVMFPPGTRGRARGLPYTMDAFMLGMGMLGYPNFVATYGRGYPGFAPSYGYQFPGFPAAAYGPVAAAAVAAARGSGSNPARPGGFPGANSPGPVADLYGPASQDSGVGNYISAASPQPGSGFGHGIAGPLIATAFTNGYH
UniProt Q9Y6C9: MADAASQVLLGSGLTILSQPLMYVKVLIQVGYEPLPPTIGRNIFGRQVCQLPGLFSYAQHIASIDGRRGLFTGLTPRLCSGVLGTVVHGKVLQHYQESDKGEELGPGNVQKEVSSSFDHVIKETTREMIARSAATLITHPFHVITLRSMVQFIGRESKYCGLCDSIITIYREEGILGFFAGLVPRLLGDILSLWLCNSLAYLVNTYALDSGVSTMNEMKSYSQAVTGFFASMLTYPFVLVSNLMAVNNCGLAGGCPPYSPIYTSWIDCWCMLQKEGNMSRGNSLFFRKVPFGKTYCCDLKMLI
UniProt Q92614: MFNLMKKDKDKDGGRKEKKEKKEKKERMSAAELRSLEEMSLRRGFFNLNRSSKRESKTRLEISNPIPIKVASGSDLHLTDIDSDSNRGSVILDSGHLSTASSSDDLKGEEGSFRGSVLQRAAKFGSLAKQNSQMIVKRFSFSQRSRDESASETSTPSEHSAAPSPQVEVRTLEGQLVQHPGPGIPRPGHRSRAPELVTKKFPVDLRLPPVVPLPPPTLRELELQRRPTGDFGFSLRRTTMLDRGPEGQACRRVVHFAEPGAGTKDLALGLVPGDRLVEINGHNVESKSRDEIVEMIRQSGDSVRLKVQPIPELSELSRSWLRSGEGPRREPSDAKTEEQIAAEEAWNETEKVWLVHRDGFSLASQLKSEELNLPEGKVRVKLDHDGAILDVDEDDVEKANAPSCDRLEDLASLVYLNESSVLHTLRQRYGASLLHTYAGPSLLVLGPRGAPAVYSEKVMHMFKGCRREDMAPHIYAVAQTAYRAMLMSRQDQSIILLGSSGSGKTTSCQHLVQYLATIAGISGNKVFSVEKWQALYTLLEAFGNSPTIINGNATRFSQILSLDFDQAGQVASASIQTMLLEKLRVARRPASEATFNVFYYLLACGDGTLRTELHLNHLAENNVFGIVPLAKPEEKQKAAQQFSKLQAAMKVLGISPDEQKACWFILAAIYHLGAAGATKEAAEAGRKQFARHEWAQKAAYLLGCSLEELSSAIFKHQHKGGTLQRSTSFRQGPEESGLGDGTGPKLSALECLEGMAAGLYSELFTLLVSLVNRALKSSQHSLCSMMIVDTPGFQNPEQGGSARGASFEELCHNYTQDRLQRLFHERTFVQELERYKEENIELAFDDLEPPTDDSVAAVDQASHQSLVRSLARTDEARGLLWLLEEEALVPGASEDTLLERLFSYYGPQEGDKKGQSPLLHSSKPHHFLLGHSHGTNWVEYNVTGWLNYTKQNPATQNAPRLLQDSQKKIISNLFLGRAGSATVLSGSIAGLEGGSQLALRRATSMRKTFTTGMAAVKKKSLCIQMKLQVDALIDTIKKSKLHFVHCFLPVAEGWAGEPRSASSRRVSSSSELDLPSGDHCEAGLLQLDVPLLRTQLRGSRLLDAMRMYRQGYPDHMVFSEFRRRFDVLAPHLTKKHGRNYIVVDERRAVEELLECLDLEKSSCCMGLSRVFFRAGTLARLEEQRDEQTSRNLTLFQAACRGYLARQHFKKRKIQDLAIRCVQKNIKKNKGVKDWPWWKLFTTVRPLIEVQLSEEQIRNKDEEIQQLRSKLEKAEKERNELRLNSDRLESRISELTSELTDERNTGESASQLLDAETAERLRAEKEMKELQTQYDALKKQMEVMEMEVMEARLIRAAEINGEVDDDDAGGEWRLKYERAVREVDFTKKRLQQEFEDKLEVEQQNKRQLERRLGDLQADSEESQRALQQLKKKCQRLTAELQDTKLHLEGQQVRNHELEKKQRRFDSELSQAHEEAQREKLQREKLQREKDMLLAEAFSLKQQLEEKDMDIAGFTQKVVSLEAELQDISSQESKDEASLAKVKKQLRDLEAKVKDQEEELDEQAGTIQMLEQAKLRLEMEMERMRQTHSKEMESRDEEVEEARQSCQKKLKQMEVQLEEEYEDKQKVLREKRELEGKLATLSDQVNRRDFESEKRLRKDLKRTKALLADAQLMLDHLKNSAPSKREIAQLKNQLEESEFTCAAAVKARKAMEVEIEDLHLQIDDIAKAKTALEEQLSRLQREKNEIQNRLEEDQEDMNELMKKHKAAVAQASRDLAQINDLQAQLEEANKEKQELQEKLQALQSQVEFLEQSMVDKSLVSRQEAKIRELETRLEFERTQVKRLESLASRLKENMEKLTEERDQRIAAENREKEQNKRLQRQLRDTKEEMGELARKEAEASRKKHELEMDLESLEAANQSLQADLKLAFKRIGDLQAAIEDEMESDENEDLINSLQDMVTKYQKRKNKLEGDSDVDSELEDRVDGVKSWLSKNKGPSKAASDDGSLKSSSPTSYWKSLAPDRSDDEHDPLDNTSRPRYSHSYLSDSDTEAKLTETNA
UniProt Q7Z406, whole entry, looked up: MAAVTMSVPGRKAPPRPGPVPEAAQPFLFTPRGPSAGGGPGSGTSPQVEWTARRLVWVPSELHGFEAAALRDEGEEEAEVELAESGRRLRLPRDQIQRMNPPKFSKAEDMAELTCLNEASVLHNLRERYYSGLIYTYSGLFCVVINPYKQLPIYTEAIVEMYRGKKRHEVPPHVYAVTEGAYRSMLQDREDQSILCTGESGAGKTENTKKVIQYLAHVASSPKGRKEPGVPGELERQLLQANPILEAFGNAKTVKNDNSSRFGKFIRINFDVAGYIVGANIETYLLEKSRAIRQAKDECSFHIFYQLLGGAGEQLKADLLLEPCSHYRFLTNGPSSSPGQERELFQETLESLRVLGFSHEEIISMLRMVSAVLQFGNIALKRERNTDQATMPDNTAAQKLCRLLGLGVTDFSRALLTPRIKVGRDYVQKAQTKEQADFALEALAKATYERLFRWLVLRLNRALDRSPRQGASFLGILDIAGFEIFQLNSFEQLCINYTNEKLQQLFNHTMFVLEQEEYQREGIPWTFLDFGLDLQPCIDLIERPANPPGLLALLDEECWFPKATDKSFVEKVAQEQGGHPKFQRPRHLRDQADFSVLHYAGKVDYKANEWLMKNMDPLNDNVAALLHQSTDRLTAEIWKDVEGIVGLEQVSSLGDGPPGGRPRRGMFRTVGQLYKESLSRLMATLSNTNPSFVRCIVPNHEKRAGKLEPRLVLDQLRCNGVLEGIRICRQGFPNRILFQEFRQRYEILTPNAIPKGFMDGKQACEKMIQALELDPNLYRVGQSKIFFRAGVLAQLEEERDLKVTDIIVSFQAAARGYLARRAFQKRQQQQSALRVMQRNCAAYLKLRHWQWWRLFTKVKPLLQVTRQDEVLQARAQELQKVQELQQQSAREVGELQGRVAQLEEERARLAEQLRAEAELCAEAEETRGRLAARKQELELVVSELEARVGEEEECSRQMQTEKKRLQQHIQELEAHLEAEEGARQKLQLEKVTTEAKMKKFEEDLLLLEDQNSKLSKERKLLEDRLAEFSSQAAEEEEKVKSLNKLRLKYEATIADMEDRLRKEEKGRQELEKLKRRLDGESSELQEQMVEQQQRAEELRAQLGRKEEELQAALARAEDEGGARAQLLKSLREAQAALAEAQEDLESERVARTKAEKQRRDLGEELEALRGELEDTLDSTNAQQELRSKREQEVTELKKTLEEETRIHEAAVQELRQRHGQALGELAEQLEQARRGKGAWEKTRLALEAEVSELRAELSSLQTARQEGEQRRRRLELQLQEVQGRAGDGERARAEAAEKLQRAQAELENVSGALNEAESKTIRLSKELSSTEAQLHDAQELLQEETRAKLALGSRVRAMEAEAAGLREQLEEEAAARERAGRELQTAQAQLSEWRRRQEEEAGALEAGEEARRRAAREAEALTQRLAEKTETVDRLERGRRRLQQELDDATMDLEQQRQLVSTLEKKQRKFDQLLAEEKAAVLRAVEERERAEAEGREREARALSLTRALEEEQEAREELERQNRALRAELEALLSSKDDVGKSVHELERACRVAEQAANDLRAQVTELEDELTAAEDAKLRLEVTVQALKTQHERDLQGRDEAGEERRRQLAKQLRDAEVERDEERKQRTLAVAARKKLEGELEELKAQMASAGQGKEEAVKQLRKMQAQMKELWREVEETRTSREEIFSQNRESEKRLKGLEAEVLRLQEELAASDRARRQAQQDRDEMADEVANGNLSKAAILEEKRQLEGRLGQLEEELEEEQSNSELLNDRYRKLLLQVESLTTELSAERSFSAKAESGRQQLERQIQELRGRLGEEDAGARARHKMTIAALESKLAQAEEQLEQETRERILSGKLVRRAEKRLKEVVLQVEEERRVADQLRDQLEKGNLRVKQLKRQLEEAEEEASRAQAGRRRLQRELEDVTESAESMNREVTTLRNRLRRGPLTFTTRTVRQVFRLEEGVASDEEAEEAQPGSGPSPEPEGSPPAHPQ
UniProt P14649: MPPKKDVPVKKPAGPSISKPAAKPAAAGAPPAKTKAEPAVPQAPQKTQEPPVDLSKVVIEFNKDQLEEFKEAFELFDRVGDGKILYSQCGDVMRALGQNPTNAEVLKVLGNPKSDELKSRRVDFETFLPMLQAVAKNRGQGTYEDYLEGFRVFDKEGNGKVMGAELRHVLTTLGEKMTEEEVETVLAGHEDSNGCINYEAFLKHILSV
UniProt Q13505: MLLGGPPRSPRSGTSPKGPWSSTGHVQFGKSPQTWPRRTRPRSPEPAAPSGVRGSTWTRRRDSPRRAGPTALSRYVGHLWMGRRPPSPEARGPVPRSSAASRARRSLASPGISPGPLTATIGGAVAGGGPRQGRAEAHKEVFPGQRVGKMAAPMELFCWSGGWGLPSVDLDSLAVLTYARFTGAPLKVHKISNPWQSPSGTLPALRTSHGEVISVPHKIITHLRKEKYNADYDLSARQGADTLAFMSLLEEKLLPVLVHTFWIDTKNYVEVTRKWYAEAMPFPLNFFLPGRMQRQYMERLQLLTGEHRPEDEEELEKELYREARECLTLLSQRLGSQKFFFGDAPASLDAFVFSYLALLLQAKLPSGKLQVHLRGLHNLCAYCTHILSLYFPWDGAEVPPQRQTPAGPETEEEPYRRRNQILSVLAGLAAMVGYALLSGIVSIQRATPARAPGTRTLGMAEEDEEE

How the values were obtained:
Assay in all cases: log2 fold change, soluble protein after heating vs DMSO (PISA); higher = thermal stabilisation; K562 cells, 10 uM, 30 min; active = over 0.2 and 3.5 SD of the protein, either way, in both replicates (recomputed)
[1] = compound: COC1=CC=C(C=C1)CN2C=CC3=C2C=C(C=C3)C(=O)NO
How it was run: (§1)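 Soluble protein was quantified by TMTpro 16plex LC-MS/MS after channel sums were equalised. It was obtained as the supernatant after 21,000xg for 90 min from pooled aliquots of K562 cells (2×10^6 cells/mL, 10 μM compound, 30 min) heated for 3 min across 48°C-58°C and extracted in PBS with 0.5% NP-40 at 4°C. Thermal stability values are relative to control samples and come from duplicates. They are given as log2 fold changes.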

filanesib = compound: CON(C)C(=O)N1N=C(c2cc(F)ccc2F)S[C@@]1(CCCN)c1ccccc1 [filanesib]
How it was run: as §1

zotarolimus = compound: CO[C@H]1C[C@@H]2CC[C@@H](C)[C@@](O)(O2)C(=O)C(=O)N2CCCC[C@H]2C(=O)O[C@H]([C@H](C)C[C@@H]2CC[C@H](n3cnnn3)[C@H](OC)C2)CC(=O)[C@H](C)/C=C(\C)[C@@H](O)[C@@H](OC)C(=O)[C@H](C)C[C@H](C)/C=C/C=C/C=C/1C [zotarolimus]
How it was run: as §1

idasanutlin = compound: COc1cc(C(=O)O)ccc1NC(=O)[C@@H]1N[C@@H](CC(C)(C)C)[C@](C#N)(c2ccc(Cl)cc2F)[C@H]1c1cccc(Cl)c1F [idasanutlin]
How it was run: as §1

alisertib = compound: COc1cc(Nc2ncc3c(n2)-c2ccc(Cl)cc2C(c2c(F)cccc2OC)=NC3)ccc1C(=O)O [alisertib]
How it was run: as §1

[2] = compound: COc1cc2nc(-c3cc(F)ccc3O)nc(N[C@@H]3CNC[C@H]3C(C)(C)O)c2cc1OC
How it was run: as §1

gefitinib = compound: COc1cc2ncnc(Nc3ccc(F)c(Cl)c3)c2cc1OCCCN1CCOCC1 [gefitinib]
How it was run: as §1

[3] = compound: COc1cccc2cc(-c3nc([C@H]4CC[C@H](C(=O)O)CC4)n4ncnc(N)c34)[nH]c12
How it was run: as §1

lapatinib = compound: CS(=O)(=O)CCNCc1ccc(-c2ccc3ncnc(Nc4ccc(OCc5cccc(F)c5)c(Cl)c4)c3c2)o1 [lapatinib]
How it was run: as §1

pictilisib = compound: CS(=O)(=O)N1CCN(Cc2cc3nc(-c4cccc5[nH]ncc45)nc(N4CCOCC4)c3s2)CC1 [pictilisib]
How it was run: as §1

[4] = compound: CS(=O)(=O)c1ccc(-c2cnc(N)c(C(=O)Nc3ccccc3)n2)cc1
How it was run: as §1

crizotinib = compound: C[C@@H](Oc1cc(-c2cnn(C3CCNCC3)c2)cnc1N)c1c(Cl)ccc(F)c1Cl [crizotinib]
How it was run: as §1

[5] = compound: C[C@@H]1COCCN1C2=NC(=NC(=C2)C3(CC3)S(=O)(=O)C)C4=C5C=CNC5=CC=C4
How it was run: as §1

[6] = compound: C[C@H](C1=CC=C(C=C1)C(=O)NC2=C3C=CNC3=NC=C2)N
How it was run: as §1

duvelisib = compound: C[C@H](Nc1ncnc2nc[nH]c12)c1cc2cccc(Cl)c2c(=O)n1-c1ccccc1 [duvelisib]
How it was run: as §1

gandotinib = compound: Cc1cc(Nc2cc(CN3CCOCC3)c3nc(C)c(Cc4ccc(Cl)cc4F)n3n2)n[nH]1 [gandotinib]
How it was run: as §1

tozasertib = compound: Cc1cc(Nc2cc(N3CCN(C)CC3)nc(Sc3ccc(NC(=O)C4CC4)cc3)n2)n[nH]1 [tozasertib]
How it was run: as §1

[7] = compound: Cc1cc(SCc2sc(-c3ccc(C(F)(F)F)cc3)nc2C)ccc1OCC(=O)O
How it was run: as §1

doramapimod = compound: Cc1ccc(-n2nc(C(C)(C)C)cc2NC(=O)Nc2ccc(OCCN3CCOCC3)c3ccccc23)cc1 [doramapimod]
How it was run: as §1

ispinesib = compound: Cc1ccc(C(=O)N(CCCN)[C@@H](c2nc3cc(Cl)ccc3c(=O)n2Cc2ccccc2)C(C)C)cc1 [ispinesib]
How it was run: as §1

Measured: log2 fold change

MYDGF (UniProt Q969H8)
inactive: [1] -0.04 | filanesib -0.038 | zotarolimus -0.042 | idasanutlin 0.002 | alisertib -0.044 | [2] -0.006 | gefitinib 0.022 | [3] 0.06 | lapatinib -0.024 | pictilisib 0 | [4] 0.011 | crizotinib 0.113 | [5] -0.038 | [6] -0.074 | duvelisib -0.041 | gandotinib 0.042 | tozasertib -0.025 | [7] -0.017 | doramapimod -0.029 | ispinesib 0.038

MYO6 isoform 6 (UniProt Q9UM54)
inactive: [1] -0.054 | filanesib 0.013 | zotarolimus 0.002 | idasanutlin -0.066 | alisertib -0.057 | [2] 0.066 | gefitinib 0.04 | [3] 0.035 | lapatinib -0.026 | pictilisib 0.033 | [4] 0.013 | crizotinib 0.044 | [5] 0.064 | [6] -0.042 | duvelisib 0.07 | gandotinib -0.037 | tozasertib -0.066 | [7] -0.045 | doramapimod 0.048 | ispinesib 0.038

MSI1 (UniProt O43347)
inactive: [1] 0.023 | filanesib 0.048 | zotarolimus -0.086 | idasanutlin 0.039 | alisertib -0.005 | [2] 0.01 | gefitinib -0.035 | [3] -0.048 | lapatinib -0.015 | pictilisib -0.048 | [4] -0.039 | crizotinib 0.204 | [5] -0.183 | [6] 0.058 | duvelisib -0.032 | gandotinib 0.008 | tozasertib -0.035 | [7] 0.091 | doramapimod 0.02 | ispinesib -0.123

MRPL9 (UniProt Q9BYD2)
inactive: [1] 0.051 | filanesib 0.119 | zotarolimus 0.083 | idasanutlin -0.048 | alisertib 0.009 | [2] 0.02 | gefitinib -0.062 | [3] -0.05 | lapatinib 0.131 | pictilisib -0.002 | [4] 0.078 | crizotinib -0.057 | [5] -0.093 | [6] 0.223 | duvelisib -0.08 | gandotinib 0.103 | tozasertib 0.047 | [7] 0.087 | doramapimod 0.014 | ispinesib -0.133

MTM1 (UniProt Q13496)
inactive: [1] 0.006 | filanesib -0.001 | zotarolimus 0.036 | idasanutlin -0.072 | alisertib -0.019 | [2] -0.039 | gefitinib 0.029 | [3] 0.042 | lapatinib 0.008 | pictilisib -0.042 | [4] -0.003 | crizotinib 0.049 | [5] -0.016 | [6] -0.05 | duvelisib -0.016 | gandotinib 0.087 | tozasertib -0.021 | [7] 0.03 | doramapimod -0.003 | ispinesib 0.096

MTFP1 (UniProt Q9UDX5)
inactive: [1] -0.07 | filanesib -0.023 | zotarolimus -0.058 | idasanutlin -0.018 | alisertib -0.027 | [2] 0.011 | gefitinib 0.031 | [3] 0.09 | lapatinib -0.032 | pictilisib -0.019 | [4] 0.072 | crizotinib 0.077 | [5] 0.037 | [6] -0.08 | duvelisib 0.076 | gandotinib -0.01 | tozasertib -0.024 | [7] -0.024 | doramapimod 0.02 | ispinesib 0.017

MSI2 (UniProt Q96DH6)
inactive: [1] -0.043 | filanesib 0.063 | zotarolimus 0.007 | idasanutlin 0.113 | alisertib -0.05 | [2] 0.037 | gefitinib -0.079 | [3] 0.01 | lapatinib -0.014 | pictilisib -0.066 | [4] 0.01 | crizotinib -0.018 | [5] -0.111 | [6] 0.131 | duvelisib 0 | gandotinib 0.026 | tozasertib -0.045 | [7] -0.051 | doramapimod 0.017 | ispinesib -0.141

MTPAP (UniProt Q9NVV4)
inactive: [1] -0.055 | filanesib 0.18 | zotarolimus -0.044 | idasanutlin 0.044 | alisertib 0.009 | [2] 0.1 | gefitinib -0.05 | [3] -0.156 | lapatinib 0.078 | pictilisib -0.112 | [4] -0.003 | crizotinib 0.058 | [5] -0.133 | [6] 0.174 | duvelisib -0.096 | gandotinib 0.024 | tozasertib 0.005 | [7] 0.011 | doramapimod 0.058 | ispinesib -0.26

MTCH2 (UniProt Q9Y6C9)
inactive: [1] -0.024 | filanesib -0.062 | zotarolimus -0.046 | idasanutlin 0.021 | alisertib -0.01 | [2] -0.026 | gefitinib 0.031 | [3] 0.05 | lapatinib -0.028 | pictilisib 0.012 | [4] 0.025 | crizotinib 0.098 | [5] 0.061 | [6] 0.01 | duvelisib 0.009 | gandotinib -0.027 | tozasertib -0.037 | [7] -0.037 | doramapimod -0.014 | ispinesib 0.002

MTR (UniProt Q99707)
inactive: [1] -0.012 | filanesib 0.129 | zotarolimus 0.097 | idasanutlin 0.042 | alisertib -0.036 | [2] -0.037 | gefitinib 0.077 | [3] -0.045 | lapatinib -0.006 | pictilisib -0.043 | [4] 0.063 | crizotinib -0.079 | [5] -0.095 | [6] 0.227 | duvelisib -0.051 | gandotinib -0.018 | tozasertib 0.027 | [7] 0.067 | doramapimod 0.116 | ispinesib -0.094

MYO18A (UniProt Q92614)
inactive: [1] -0.067 | filanesib 0.1 | zotarolimus 0 | idasanutlin 0.06 | alisertib -0.062 | [2] 0.044 | gefitinib -0.002 | [3] -0.006 | lapatinib 0.007 | pictilisib -0.035 | [4] 0.044 | crizotinib 0.022 | [5] -0.051 | [6] 0.177 | duvelisib -0.052 | gandotinib -0.008 | tozasertib -0.039 | [7] 0.027 | doramapimod 0.078 | ispinesib -0.103

MYH14 isoform 2 (UniProt Q7Z406)
inactive: [1] 0.059 | filanesib -0.046 | zotarolimus 0 | idasanutlin 0.009 | alisertib -0.048 | [2] 0.015 | gefitinib 0.026 | [3] -0.017 | lapatinib 0.01 | pictilisib 0.01 | [4] 0.013 | crizotinib -0.021 | [5] 0.019 | [6] -0.012 | duvelisib -0.01 | gandotinib 0.023 | tozasertib 0.019 | [7] -0.027 | doramapimod -0.029 | ispinesib 0.032

MYL6B (UniProt P14649)
inactive: [1] -0.039 | filanesib 0.022 | zotarolimus -0.003 | idasanutlin -0.002 | alisertib -0.013 | [2] 0.005 | gefitinib 0.006 | [3] -0.046 | lapatinib -0.009 | pictilisib 0.023 | [4] -0.002 | crizotinib 0.067 | [5] 0.009 | [6] 0.003 | duvelisib 0.025 | gandotinib -0.001 | tozasertib 0.025 | [7] -0.053 | doramapimod 0.009 | ispinesib 0.008

MTX1 (UniProt Q13505)
inactive: [1] 0.079 | filanesib -0.094 | zotarolimus 0.043 | idasanutlin -0.014 | alisertib 0.004 | [2] 0.154 | gefitinib 0.047 | [3] -0.015 | lapatinib 0.013 | pictilisib 0.041 | [4] 0.069 | crizotinib -0.011 | [5] 0.112 | [6] -0.037 | duvelisib 0.007 | gandotinib -0.01 | tozasertib -0.031 | [7] 0.021 | doramapimod 0.017 | ispinesib 0.081

MRPS11 (UniProt P82912)
inactive: [1] -0.071 | filanesib 0.119 | zotarolimus 0.041 | idasanutlin -0.199 | alisertib -0.264 | [2] 0.026 | gefitinib -0.07 | [3] 0.079 | lapatinib 0.034 | pictilisib 0.38 | [4] 0.091 | crizotinib 0.011 | [5] 0.047 | [6] 0.173 | duvelisib 0.031 | gandotinib -0.108 | tozasertib -0.07 | [7] 0.177 | doramapimod 0.045 | ispinesib -0.364

MRTO4 (UniProt Q9UKD2)
inactive: [1] -0.097 | filanesib 0.4 | zotarolimus 0.219 | idasanutlin 0.055 | alisertib -0.162 | [2] 0.02 | gefitinib 0.003 | [3] -0.235 | lapatinib 0.103 | pictilisib -0.029 | [4] -0.14 | crizotinib 0.005 | [5] -0.37 | [6] 0.026 | duvelisib -0.138 | gandotinib 0.241 | tozasertib 0.147 | [7] 0.043 | doramapimod 0.161 | ispinesib -0.101
